Primary screen of a compound library

By UniProt entry, the sequences of proteins in these tests, tags left out.
UniProt E9BF75, entry or part of it: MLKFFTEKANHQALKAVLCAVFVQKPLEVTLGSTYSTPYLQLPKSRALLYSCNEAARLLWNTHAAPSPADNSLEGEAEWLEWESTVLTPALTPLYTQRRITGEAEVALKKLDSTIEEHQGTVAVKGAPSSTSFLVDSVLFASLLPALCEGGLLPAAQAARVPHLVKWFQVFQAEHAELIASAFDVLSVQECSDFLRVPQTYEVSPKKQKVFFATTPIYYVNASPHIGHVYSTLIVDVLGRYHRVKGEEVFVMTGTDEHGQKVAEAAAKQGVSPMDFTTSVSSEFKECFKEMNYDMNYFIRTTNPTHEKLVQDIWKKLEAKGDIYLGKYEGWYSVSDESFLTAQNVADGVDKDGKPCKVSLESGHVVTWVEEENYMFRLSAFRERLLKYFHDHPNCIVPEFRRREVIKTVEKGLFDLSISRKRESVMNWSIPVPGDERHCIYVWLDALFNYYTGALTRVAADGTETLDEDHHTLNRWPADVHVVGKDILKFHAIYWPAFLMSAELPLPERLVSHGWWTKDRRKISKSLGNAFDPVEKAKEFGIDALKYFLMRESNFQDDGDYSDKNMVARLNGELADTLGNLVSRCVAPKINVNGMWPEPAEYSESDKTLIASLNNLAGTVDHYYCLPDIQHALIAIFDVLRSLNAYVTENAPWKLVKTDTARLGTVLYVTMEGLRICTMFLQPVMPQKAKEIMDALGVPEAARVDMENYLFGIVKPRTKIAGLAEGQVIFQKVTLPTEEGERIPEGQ

Measurements from “University of Dundee, Small-Polar-MMV Screening Library” (2021), ChEMBL document CHEMBL3988442.

Mtb heat-shock: 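Assay on Mycobacterium tuberculosis, filed only as a heat shock assay from Cornell; the read-out is not stated. The concentration is filed as 10 mM, unlikely as a test dose, so the dose is not known. The record gives no direction; compounds that gave an IC50 in retests scored well above the rest, so higher reads as stronger inhibition. Of about 69,000 compounds tested this way, about 930 (1.4%) reached 50% or more in at least one test.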
LdMetRS: 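Methionyl-tRNA synthetase (putative), Leishmania donovani (UniProt E9BF75). Primary screen of methionyl-tRNA synthetase; the read-out is not stated. The test concentration is not given. The values are filed as inhibition. Of about 68,000 compounds tested this way, about 24 (0.035%) reached 50% or more in at least one test.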
Mtb growth Cornell: 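Whole-cell assay for inhibitors of Mycobacterium tuberculosis growth, labelled Cornell in the record; the read-out is not stated. The concentration is filed as 10 mM, unlikely as a test dose, so the dose is not known. Higher means stronger inhibition (inferred from two other growth screens of the library). About 53,000 compounds were tested under these conditions; 1.7% (about 900) showed 50% or more at least once.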

All values are in %. How 0% and 100% were set is not recorded. Most values in the screen are low, and negative values occur. Compounds were drawn at random from those tested, without regard to their results.

- CN(C)c1ccccc1C(=O)N1C[C@@H](CN2CCCCC2)[C@@H](CO)C1 : Mtb heat-shock: -12.36%; LdMetRS: 14.07%; Mtb growth Cornell: 26.93%
- CC(C)N(CC(N)=O)C(=O)CCC(=O)c1ccc(F)cc1F : Mtb heat-shock: -26%; LdMetRS: 8.659%; Mtb growth Cornell: 15.96%
- CS(=O)(=O)c1cc(C(=O)NS(=O)(=O)Cc2ccc(F)cc2)ccc1Cl : Mtb heat-shock: 3.058%; LdMetRS: 8.964%; Mtb growth Cornell: 15.35%
- COCc1noc(CC2CN(c3ncnc4sc(C)c(C)c34)CCO2)n1 (stereo not given) : Mtb heat-shock: -2.139%; LdMetRS: -21.71%; Mtb growth Cornell: -3.652%
- CC(C)NC(=O)CCNC(=O)Nc1cccc(-c2nccn2C)c1 : Mtb heat-shock: 5.909%; LdMetRS: 17.6%; Mtb growth Cornell: 3.66%
- CCN(Cc1ccc(-c2ccccn2)cc1)C1CCS(=O)(=O)C1 (stereo not given) : Mtb heat-shock: 13.71%; LdMetRS: 9.42%; Mtb growth Cornell: -4.576%
- CCCN(CC1COc2ccccc2O1)C(=O)C1=NN(C)C(=O)CC1 (stereo not given) : Mtb heat-shock: 7.771%; LdMetRS: 7.554%; Mtb growth Cornell: 31.53%
- Cc1nnsc1CN(C)C(=O)c1ccc(CSc2nnc[nH]2)o1 : Mtb heat-shock: 3.894%; LdMetRS: 6.03%; Mtb growth Cornell: 10.35%
- CN(CCO)C[C@@H]1CN(C(=O)c2c(F)cccc2Cl)C[C@@H]1CO : Mtb heat-shock: -6.853%; LdMetRS: 11.81%; Mtb growth Cornell: -17.86%
- [H][C@]12CCN(C(=O)C3CCCO3)[C@@]1([H])CCC(=O)N2Cc1ccncc1 (stereo not given in full) : Mtb heat-shock: -22.82%
- O=C1NCCCc2[nH]c(-c3nc(C4CC4)no3)nc21 : Mtb heat-shock: -6.358%; LdMetRS: 14.58%; Mtb growth Cornell: 3.66%
- Cc1cc(C)n(C2CCCN(C(=O)c3c(C)c(C)n[nH]c3=O)C2)n1 (stereo not given) : Mtb heat-shock: 9.558%; LdMetRS: 15.38%
- O=C(NCC1CC1)C1=NOC2(CCN(S(=O)(=O)c3ccc(F)cc3)C2)C1 (stereo not given) : Mtb heat-shock: -2.908%; LdMetRS: 3.268%; Mtb growth Cornell: -7.843%
- CCN1CCN(Cc2nc(CC(C)C)no2)CC1 : Mtb heat-shock: -38.29%; LdMetRS: 12.63%
- CCCS(=O)(=O)N1CC(=O)N(CCCc2ccccc2)CC(O)C1 (stereo not given) : Mtb heat-shock: -29.16%; LdMetRS: 4.054%; Mtb growth Cornell: -50.51%
- CC(=O)N(C)Cc1ccccc1NCc1c(C)cccc1C : Mtb heat-shock: 4.81%
- CC(C)c1noc(CN2CCC(C3CCCCCN3S(C)(=O)=O)CC2)n1 (stereo not given) : LdMetRS: 8.571%
- COc1ccc(NC(=O)c2cccc(OC)c2OC)cc1 : Mtb heat-shock: -18.81%; LdMetRS: 1.95%
- C1CC(N2Cc3nnn(CC4CC4)c3C(COCC3CC3)C2)C1.O=C(O)C(F)(F)F (stereo not given) : Mtb heat-shock: 16.76%; Mtb growth Cornell: 21.55%
- Cc1cnn(CC2CCCN2C(=O)c2cccc(S(C)(=O)=O)c2)c1 (stereo not given) : Mtb heat-shock: -10.13%; LdMetRS: 2.222%; Mtb growth Cornell: 1.06%
- CC(Oc1ccccc1C(F)(F)F)C(=O)NCCC(=O)N(C)C (stereo not given) : Mtb heat-shock: 0.7739%; LdMetRS: 19.05%; Mtb growth Cornell: -42.46%
- Cc1ccc(-c2c(-c3ccccc3)ncn2CCCN2CCOCC2)o1 : Mtb heat-shock: -10.28%; LdMetRS: 1.229%; Mtb growth Cornell: 42.66%
- COc1ccc(C(=O)N2CCOC(Cc3cccc(C(F)(F)F)c3)C2)o1 (stereo not given) : Mtb heat-shock: 30.14%; LdMetRS: 8.904%; Mtb growth Cornell: 107.3%
- O=C(c1cccs1)N1CCCC2(COCCN(c3cccnc3)C2)C1 (stereo not given) : LdMetRS: 12.44%
- COc1cc(F)ccc1CC(=O)N1CC[C@H]2C(=O)NCCO[C@H]2C1 : LdMetRS: 14.01%
- O=C(c1c[nH]c(=O)c(Cl)c1)N1C[C@@H]2CC[C@H](C1)N(CC1CCC1)C2 : LdMetRS: -4.294%
- O=C1NC(c2ccccc2)=N[C@@]12CC[C@@H]1CN(Cc3nccs3)C[C@@H]12 : LdMetRS: 8.143%
- COc1cccc(CN2CCCC3(CCN(C(=O)N4CCCC4)C3)C2)c1 (stereo not given) : LdMetRS: 21.47%
- Cc1nc(C)n(CC2CCCN(CC(=O)Nc3c(C)n[nH]c3C)C2)n1 (stereo not given) : Mtb heat-shock: -1.835%; LdMetRS: 14.29%
- Cc1c(C(=O)NC(C)C(C)C)nnn1-c1cccc2c1CCN(C)C2 (stereo not given) : Mtb heat-shock: -7.947%; LdMetRS: 14.08%; Mtb growth Cornell: 4.546%